{"sequences": {"note": "Amino acid sequences for entries named in this document (tags omitted).", "UniProt Q99714, whole entry": "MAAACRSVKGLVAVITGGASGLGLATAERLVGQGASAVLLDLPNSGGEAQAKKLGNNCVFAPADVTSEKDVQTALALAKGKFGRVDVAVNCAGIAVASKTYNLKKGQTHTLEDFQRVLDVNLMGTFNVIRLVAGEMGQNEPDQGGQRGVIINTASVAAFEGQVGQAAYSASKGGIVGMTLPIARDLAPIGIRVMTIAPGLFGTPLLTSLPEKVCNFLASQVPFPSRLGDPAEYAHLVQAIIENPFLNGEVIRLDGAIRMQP"}, "source": "PubChem BioAssay AID886", "about": "(National Center for Advancing Translational Sciences (NCATS), 2007)", "note": "About 2,500 (3.4%) of roughly 73,000 compounds were called active. Listed are the inconclusive results; actives and inactives stand elsewhere. Calls follow the shape of the dose curve; as a rule, active = well fitted inhibition curve with a large enough effect; inconclusive = small, poorly fitted or top-dose-only effect; inactive = no such curve, though single readings can be large or run the other way. Potency is read from the fitted curve at half-maximal effect.", "data": [{"target": "3-hydroxyacyl-CoA dehydrogenase type-2 (Homo sapiens) (UniProt Q99714)", "assay": "qHTS Assay for Inhibitors of HADH2 (Hydroxyacyl-Coenzyme A Dehydrogenase, Type II); also: nearly all actives have a fitted effect of over 60% in size", "details": "recombinant HADH2, NADH fluorescence, beta-hydroxybutyryl-CoA", "values": [{"smiles": "CP(=S)(Nn1cnnc1)Oc1ccccc1", "note": "(centres undefined)", "Potency": "inconclusive: 31.6 µM"}, {"smiles": "NNC(NN)NN.n1nc(-c2nn[nH]n2)n[nH]1", "Potency": "inconclusive: 1 µM"}, {"smiles": "Cc1nc2ccc3ccccc3c2o1.O=[N+]([O-])c1cc([N+](=O)[O-])c(O)c([N+](=O)[O-])c1", "Potency": "inconclusive: 15.8 µM"}, {"smiles": "C/C1=C2N=C(/C=C3N=C(/C(C)=C4\\[N-][C@@](C)([C@H]5N=C1[C@@](C)(CCC(=O)NC[C@H](C)OP(=O)([O-])O[C@@H]1[C@H](O)[C@H](n6cnc7cc(C)c(C)cc76)O[C@@H]1CO)[C@@H]5CC(N)=O)[C@](C)(CC(N)=O)[C@H]4CCC(N)=O)[C@@](C)(CC(N)=O)[C@@H]\\3CCC(N)=O)C(C)(C)[C@@H]/2CCC(N)=O.[C-]#N.[Co+3]", "Potency": "inconclusive: 20 µM"}]}]}
